Experimental data: PMC8551806

The chains behind the UniProt entries cited, without tags or fusion partners. Where a name states a change or a piece, a line headed by the entry shows the natural chain unless it says otherwise.
UniProt A0MES8: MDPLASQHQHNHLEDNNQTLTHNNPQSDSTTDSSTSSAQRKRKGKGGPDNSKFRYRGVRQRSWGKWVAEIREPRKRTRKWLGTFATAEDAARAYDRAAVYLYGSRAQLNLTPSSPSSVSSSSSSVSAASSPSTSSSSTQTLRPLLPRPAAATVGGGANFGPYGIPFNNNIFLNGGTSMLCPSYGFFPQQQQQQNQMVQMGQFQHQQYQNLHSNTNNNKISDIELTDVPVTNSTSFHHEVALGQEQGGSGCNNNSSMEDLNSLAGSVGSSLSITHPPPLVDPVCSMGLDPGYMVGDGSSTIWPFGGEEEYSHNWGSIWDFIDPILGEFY

Molecular target: ABI4 (AtABI4) (Arabidopsis thaliana (ecotype Col-0)) (UniProt A0MES8)
Assay: EMSA
Conditions: LightShift chemiluminescent EMSA kit (Thermo); pH and temperature not stated; recombinant protein; residues 1-328; protein details: 7xHis (pET32a vector); label: biotin

“AATAAAAATCCACCGAACTATTATT (double strand) [Positive control probe (CE1 element of ARR6)]”: binds.

Construct, isoform or probe ends are uncertain for at least one entry. At least one verdict rests on a figure or table, not on a statement of the authors.
